Source: paper PMC10022743
Results are given in words; binding and its absence hold for the method and conditions named. In cells and extracts the contact can be indirect. Some results given as binding are weak or reduced against the parent protein; the word gives no strength. Sequences can lack the tags named with a protein.

Biological target: T1, HA–YKT6-WT (full-length, siRNA-resistant) (human), O15498
T1 chain: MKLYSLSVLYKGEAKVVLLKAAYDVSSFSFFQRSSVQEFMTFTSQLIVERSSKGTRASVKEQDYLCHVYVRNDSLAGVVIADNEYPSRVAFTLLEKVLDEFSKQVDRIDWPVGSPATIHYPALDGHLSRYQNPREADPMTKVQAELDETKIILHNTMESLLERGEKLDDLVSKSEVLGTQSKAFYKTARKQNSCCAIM
Experiment: co-IP; YKT6 siRNA-treated HEK293T cells stably expressing HA–YKT6 constructs, 2 h EBSS and 300 nM Torin 1; lysis in TNE buffer with 1% Triton X-100; HA–agarose beads, 2 h at 4°C; western blot
Conditions: remark: other sources report otherwise

binding: binds
B1: SNAP29, O95721 1-258 (protein)
chain: MSAYPKSYNPFDDDGEDEGARPAPWRDARDLPDGPDAPADRQQYLRQEVLRRAEATAASTSRSLALMYESEKVGVASSEELARQRGVLERTEKMVDKMDQDLKISQKHINSIKSVFGGLVNYFKSKPVETPPEQNGTLTSQPNNRLKEAISTSKEQEAKYQASHPNLRKLDDTDPVPRGAGSAMSTDAYPKNPHLRAYHQKIDSNLDELSMGLGRLKDIALGMQTEIEEQDDILDRLTTKVDKLDVNIKSTERKVRQL
